{"source": "patent US8871715B2", "about": "“Use of selenium compounds, especially selenium yeasts for altering cognitive function” (Alltech, Inc., priority 2005, dated 2014)", "key": {"[1]": {"test_system": "brain (cerebral cortex) gene expression", "test": "Gene expression in mouse brain (cerebral cortex, microarray) with dietary selenium vs selenium deficient diet", "type": "in vivo, mouse (male C57BL/6J)", "settings": "diet 1 ppm Se for 100 days vs selenium deficient diet", "description": "(§1) Animal Care. Male C57BL/6J mice were housed singly and started on the experimental diets described below immediately after weaning (21 days of age). The mice were maintained in the Shared Aging Rodent Facility at the William S. Middleton Memorial Veterans Administration Medical Center (Madison, Wis.). Temperature and humidity were maintained at constant levels. Room light was controlled to provide 12-hr cycles of light and dark.\n(§2) Experimental diets were created by Harlan Teklad (Madison, Wis.). Selenium content of the diets was determined by Covance Inc. (Madison, Wis.). Five (5) animals were included in each of the following treatment groups: a diet deficient in selenium (SD); a diet supplemented with selenomethionine (SM, obtained from Sigma, St. Louis, Mo.) such that the final selenium content of the diet was one (1) part per million; a diet supplemented with sodium selenite (SS, Sigma) such that the final concentration of selenium in this diet was one (1) part per million; or a diet supplemented with the yeast selenium SEL-PLEX (SP, Alltech, Lexington, Ky.), such that the final concentration of selenium in this diet was one (1) part per million. SEL-PLEX. Mice were provided with water and their respective diet ad libitum for 100 days. Diets were stored at the dark at 4° C. and fresh diet was added to feeder twice weekly.\nTissue sample preparation and microarray analysis. Mice were killed at 100 days of age by cervical dislocation. For intestinal expression studies, the intestine was flushed twice with saline solution and small intestine was measured and divided in three equal segments. A 3-cm region of the middle segment of the small intestine corresponding to the jejunum (˜300 mg of tissue) was cut and rinsed again with physiological saline to completely remove contents, flash frozen in liquid nitrogen and stored at −80° C. For brain (e.g., cerebral cortex) studies, the cerebral cortex was separated from the surrounding brain tissue and was flash frozen in liquid nitrogen and stored at −80° C. […]"}, "[2]": {"test_system": "gene expression in the mouse intestine", "test": "Gene expression in mouse intestine (microarray) with dietary selenium vs selenium deficient diet", "type": "in vivo, mouse (male C57BL/6J)", "settings": "diet 1 ppm Se for 100 days vs selenium deficient diet", "description": "as §1, §2\nTissue sample preparation and microarray analysis. Mice were killed at 100 days of age by cervical dislocation. For intestinal expression studies, the intestine was flushed twice with saline solution and small intestine was measured and divided in three equal segments. A 3-cm region of the middle segment of the small intestine corresponding to the jejunum (˜300 mg of tissue) was cut and rinsed again with physiological saline to completely remove contents, flash frozen in liquid nitrogen and stored at −80° C. For brain (e.g., cerebral cortex) studies, the cerebral cortex was separated from the surrounding brain tissue and was flash frozen in liquid nitrogen and stored at −80° C.\nTotal RNA was isolated from using the guanidinium isothiocyanate method of TRIZOL (Life Technologies, Grand Island, N.Y.) and individual samples were used for gene expression profiles. Total RNA was cleaned up by RNeasy Mini kit (Qiagen, Valencia, Calif.). Target RNA was prepared by converting […] total RNA into double-strand cDNA using GeneChip Expression 3′-Amplification Reagents One-Cycle cDNA Synthesis Kit (Affymetrix, Santa Clara, Calif.) with a T7-(dT)24 primer incorporating a T7 RNA polymerase promoter. After cleaning up double-strand cDNA using Genechip Sample Cleanup Module (Affymetrix, Santa Clara, Calif.), biotin-labeled cRNA was synthesized from double-strand cDNA using GeneChip Expression 3′-Amplification Reagents for IVT Labeling (Affymetrix, Santa Clara, Calif.). The biotin-labeled cRNA was cleaned up using Genechip Sample Cleanup Module and was fragmented by heating (35 min at 94° C.).\nFifteen (15) μg of cRNA fragments were hybridized (16 h at 45° C.) to Mouse Genome 430 2.0 Array (Affymetrix, Santa Clara, Calif.) using GeneChip Hybridization Oven 640. After hybridization, the gene chips were automatically washed and stained with streptavidin-phycoerythrin biotinylated anti-streptavidin using Affymetrix GeneChip Fluidics Station 450. The DNA chips were scanned with Affymetrix GeneChip Scanner 3000 (Affymetrix, Santa Clara, Calif.) to detect the cell signal intensities by laser. All calculations were performed with Affymetrix GeneChip Operating Software (GCOS) version 1.3 after scanning.\n• 1. The spreadsheet containing probe set identifiers and signal intensity values was opened in Microsoft Excel (version 11.1.1 for the Macintosh OS-X operating system) and summary statistics were generated (mean signal intensity for each treatment group, standard error of the mean). Two-tailed t-tests (equal variance) were performed for the following treatment groups: SM vs. SD, SS vs. SD, and SP vs. SD. […]"}}, "note": "At least one structure is not confirmed: it was looked up by name or label, or the drawing left a doubt.", "data": [{"compound": "O=[Se](O)O", "note": "[Sod-sel, sodium selenite]", "values": [{"measurement": "CORS-26 expression, fold reduction", "setting": "[1]", "result": "no alteration"}, {"measurement": "expression of complement component genes (summary in words)", "setting": "[1]", "result": "did not provide a statistically significant alteration"}, {"measurement": "expression of genes encoding a number of cathepsins (summary in words)", "setting": "[1]", "result": "downregulated"}, {"measurement": "Glutathione S-transferase, alpha 3 (Gsta3) expression, FC", "setting": "[2]", "result": "decreased expression"}, {"measurement": "Glutathione S-transferase, alpha 4 (Gsta4) expression, FC", "setting": "[2]", "result": "decreased expression"}, {"measurement": "Glutathione S-transferase, mu 3 (Gstm3) expression, FC", "setting": "[2]", "result": "decreased expression"}, {"measurement": "Glyoxalase 1 (Glo1) expression, fold reduction", "setting": "[2]", "result": "not significantly affected"}, {"measurement": "LIM homeobox protein 8 gene (Lhx8) expression, fold upregulation", "setting": "[2]", "result": "not significantly different"}, {"measurement": "Neurogenin 3 (Neurog3) expression, fold upregulation", "setting": "[2]", "result": "no significant alteration"}, {"measurement": "Prohibitin (Phb) expression, fold downregulation", "setting": "[2]", "result": "did not significantly alter"}, {"measurement": "expression pattern of GST genes (summary in words)", "setting": "[2]", "result": "altered (e.g., reduced) expression"}, {"measurement": "selenoprotein N1 (Sepn1) gene expression, fold increase", "setting": "[2]", "result": "not significantly affected"}, {"measurement": "sprouty homolog 2 gene (Spry2) expression, fold reduction", "setting": "[2]", "result": "no alteration"}, {"measurement": "transforming growth factor beta 2 (TGF-β2) expression, fold upregulation", "setting": "[2]", "result": "not altered"}, {"measurement": "type II iodothyronine deiodinase (Dio2) expression, fold down-regulation", "setting": "[2]", "result": "no ability to alter"}, {"measurement": "Gadd45g1p expression in intestinal tissue (in words)", "setting": "[2]; p<0.05", "result": "decreased expression"}]}]}
